The series in a line: Aqueous solubility of the compound. The following applies: buffer.

Converted amounts (≈) assume the structure as drawn.

For orientation: solubility means the concentration that dissolves in the medium under given conditions. A higher solubility goes with a readily soluble substance. In the case of `COc1cc(OC)c(S(=O)(=O)N2c3ccccc3CC2C)cc1NC(C)=O` (stereo unspecified), the solubility worked out at 15 µM (≈ 5.86 µg/mL).

For the origin of these results see ChEMBL document CHEMBL1949578, “Inhibitors of acetyltransferase domain of N-acetylglucosamine-1-phosphate-uridyltransferase/glucosamine-1-phosphate-acetyltransferase (GlmU). Part 1: Hit to lead evaluation of a novel arylsulfonamide series” (Bioorg Med Chem Lett, 2012).
